Test results from patent US20170165373A1.
No constants are given. Whether binding was seen depends on the method and setting. Some results given as binding are weak or reduced against the parent protein; the word gives no strength.

The chains behind the UniProt entries cited, without tags or fusion partners. Where a name states a change or a piece, a line headed by the entry shows the natural chain unless it says otherwise.
UniProt O14836: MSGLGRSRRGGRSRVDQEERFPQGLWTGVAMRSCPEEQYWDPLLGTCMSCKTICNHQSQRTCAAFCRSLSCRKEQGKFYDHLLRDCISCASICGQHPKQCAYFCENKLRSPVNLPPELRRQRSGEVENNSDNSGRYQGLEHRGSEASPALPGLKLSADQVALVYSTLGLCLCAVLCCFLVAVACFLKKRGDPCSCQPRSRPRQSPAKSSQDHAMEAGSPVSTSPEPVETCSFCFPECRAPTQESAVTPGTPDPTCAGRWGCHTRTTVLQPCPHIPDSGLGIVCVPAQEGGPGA
UniProt Q02223: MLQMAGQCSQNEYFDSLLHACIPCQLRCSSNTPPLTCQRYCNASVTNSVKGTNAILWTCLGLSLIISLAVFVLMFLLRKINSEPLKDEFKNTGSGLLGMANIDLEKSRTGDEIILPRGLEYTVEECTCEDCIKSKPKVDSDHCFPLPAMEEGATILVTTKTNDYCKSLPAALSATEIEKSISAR

Experiments:
[1] = molecular target: clipped form of the rhuBCMA fusion protein, SEQ ID NO:354 (human); experiment: LC/MS chromatogram of bound forms (peak A)
[2] = molecular target: clipped form of the rhuBCMA fusion protein, SEQ ID NO:357 (human); experiment: LC/MS chromatogram of bound forms (peak B)
[3] = molecular target: clipped form of the rhuBCMA fusion protein, SEQ ID NO:358 (human); experiment: LC/MS chromatogram of bound forms (peak C)
[4] = molecular target: clipped form of the rhuBCMA fusion protein, SEQ ID NO:356 (human); experiment: LC/MS chromatogram of bound forms (peak E)
[5] = molecular target: clipped form of the rhuBCMA fusion protein, SEQ ID NO:354 (human); experiment: SEC capture of complexes, LC/MS of bound forms (peak A)
[6] = molecular target: clipped form of the rhuBCMA fusion protein, SEQ ID NO:357 (human); experiment: SEC capture of complexes, LC/MS of bound forms (peak B)
[7] = molecular target: clipped form of the rhuBCMA fusion protein, SEQ ID NO:358 (human); experiment: SEC capture of complexes, LC/MS of bound forms (peak C)
[8] = molecular target: clipped form of the rhuBCMA fusion protein, SEQ ID NO:356 (human); experiment: SEC capture of complexes, LC/MS of bound forms (peak E)
[9] = molecular target: clipped form of the rhuBCMA fusion protein, SEQ ID NO:354 (human); experiment: size exclusion chromatography of antibody plus Sumo-BCMA
[10] = molecular target: clipped form of the rhuBCMA fusion protein, SEQ ID NO:355 (human); experiment: as above
[11] = molecular target: clipped form of the rhuBCMA fusion protein, SEQ ID NO:356 (human); experiment: as above
[12] = molecular target: clipped form of the rhuBCMA fusion protein, SEQ ID NO:354 (human); experiment: LC/MS (ESI-TOF, reduced sample) of the SEC-isolated 29C12 + SumoBCMA sample
[13] = molecular target: clipped form of the rhuBCMA fusion protein, SEQ ID NO:356 (human); experiment: as above
[14] = molecular target: clipped form of the rhuBCMA fusion protein, SEQ ID NO:357 (human); experiment: as above
[15] = molecular target: clipped form of the rhuBCMA fusion protein, SEQ ID NO:358 (human); experiment: as above
[16] = molecular target: TACI, full length, on transiently transfected cells (human) (UniProt O14836); experiment: FACS on transiently transfected cells
[17] = molecular target: TACI, full length, on transiently transfected cells (human) (UniProt O14836); experiment: FACS on cells transiently transfected with the full-length receptor
[18] = molecular target: TACI, full length, on transiently transfected cells (human) (UniProt O14836); experiment: FACS on cells transiently transfected with the full-length receptor; positive if MFI is two times the negative control
[19] = molecular target: human BCMA (huBCMA), full length, on cells (human) (UniProt Q02223); experiment: as above

| binding [1] | binding [2] | binding [3] | binding [4] | binding [5] | binding [6] | binding [7] | binding [8] | binding [9] | binding [10] | binding [11] | binding [12] | binding [13] | binding [14] | binding [15] | binding [16] | binding [17] | binding [18] | binding [19] | Binder |
| --- | --- | --- | --- | --- | --- | --- | --- | --- | --- | --- | --- | --- | --- | --- | --- | --- | --- | --- | --- |
| binds | binds | binds | binds | binds | binds | binds | binds | binds | binds | binds | binds | binds | binds | binds |  |  |  |  | 29C12 (antibody, V domains shown) VH: EVQLLESGGALVQPGGSLRLSCAASGFTFSSYAMNWVRQAPGKGLEWVSAISVGGDTYYADSVKGRFTISRDNSKNTLYLQMNSLRAEDTAVYYCAKDQVTMVRGVWYYYGLDVWGQGTTVTVSS VL: DIVMIQSPLSLPVTPGEPASISCRSSQSLLHSNGNNYLDWYLQKPGQSPHLLISLGSNRTSGVPDRFSGSGSGTDFTLKISRVEAEDVGVYYCMQALQPPRRFGQGTKLEIKR |
|  |  |  |  |  |  |  |  |  |  |  |  |  |  |  | binds | binds | binds | binds | 11F12 (fully human anti-huBCMA monoclonal antibody) (antibody, V domains shown) VH: QVQLVESGGGVVQPGRSLRLSCAASGFTFSSYGLHWVRQAPGKGLEWVALISYDGSNKYYADSVKGRFTISRDNSKNTLYLQMNSLRAEDTAVYYCWYSSSWTPLDYWGQGTLVTVSS VL: DIQMTQSPSSLSASVGDRVTITCRASQGIRNDLGWYQQKPGKAPKRLIYAASSLQSGVPSRFSGSGSGTEFTLTISSLQPEDFATYYCLQYYSYPLTFGGGTKVEIKR |
